Where two headings read alike, the source gives them in different places. Results are given in words; binding and its absence hold for the method and conditions named. Some entries that bind do so weakly or less than the wild type. For part of these data: Tags and fused reporters may be left off the sequences shown.

Protein sequences, listed by entry. Tags and fused reporters are not part of them.
UniProt Q96JI7: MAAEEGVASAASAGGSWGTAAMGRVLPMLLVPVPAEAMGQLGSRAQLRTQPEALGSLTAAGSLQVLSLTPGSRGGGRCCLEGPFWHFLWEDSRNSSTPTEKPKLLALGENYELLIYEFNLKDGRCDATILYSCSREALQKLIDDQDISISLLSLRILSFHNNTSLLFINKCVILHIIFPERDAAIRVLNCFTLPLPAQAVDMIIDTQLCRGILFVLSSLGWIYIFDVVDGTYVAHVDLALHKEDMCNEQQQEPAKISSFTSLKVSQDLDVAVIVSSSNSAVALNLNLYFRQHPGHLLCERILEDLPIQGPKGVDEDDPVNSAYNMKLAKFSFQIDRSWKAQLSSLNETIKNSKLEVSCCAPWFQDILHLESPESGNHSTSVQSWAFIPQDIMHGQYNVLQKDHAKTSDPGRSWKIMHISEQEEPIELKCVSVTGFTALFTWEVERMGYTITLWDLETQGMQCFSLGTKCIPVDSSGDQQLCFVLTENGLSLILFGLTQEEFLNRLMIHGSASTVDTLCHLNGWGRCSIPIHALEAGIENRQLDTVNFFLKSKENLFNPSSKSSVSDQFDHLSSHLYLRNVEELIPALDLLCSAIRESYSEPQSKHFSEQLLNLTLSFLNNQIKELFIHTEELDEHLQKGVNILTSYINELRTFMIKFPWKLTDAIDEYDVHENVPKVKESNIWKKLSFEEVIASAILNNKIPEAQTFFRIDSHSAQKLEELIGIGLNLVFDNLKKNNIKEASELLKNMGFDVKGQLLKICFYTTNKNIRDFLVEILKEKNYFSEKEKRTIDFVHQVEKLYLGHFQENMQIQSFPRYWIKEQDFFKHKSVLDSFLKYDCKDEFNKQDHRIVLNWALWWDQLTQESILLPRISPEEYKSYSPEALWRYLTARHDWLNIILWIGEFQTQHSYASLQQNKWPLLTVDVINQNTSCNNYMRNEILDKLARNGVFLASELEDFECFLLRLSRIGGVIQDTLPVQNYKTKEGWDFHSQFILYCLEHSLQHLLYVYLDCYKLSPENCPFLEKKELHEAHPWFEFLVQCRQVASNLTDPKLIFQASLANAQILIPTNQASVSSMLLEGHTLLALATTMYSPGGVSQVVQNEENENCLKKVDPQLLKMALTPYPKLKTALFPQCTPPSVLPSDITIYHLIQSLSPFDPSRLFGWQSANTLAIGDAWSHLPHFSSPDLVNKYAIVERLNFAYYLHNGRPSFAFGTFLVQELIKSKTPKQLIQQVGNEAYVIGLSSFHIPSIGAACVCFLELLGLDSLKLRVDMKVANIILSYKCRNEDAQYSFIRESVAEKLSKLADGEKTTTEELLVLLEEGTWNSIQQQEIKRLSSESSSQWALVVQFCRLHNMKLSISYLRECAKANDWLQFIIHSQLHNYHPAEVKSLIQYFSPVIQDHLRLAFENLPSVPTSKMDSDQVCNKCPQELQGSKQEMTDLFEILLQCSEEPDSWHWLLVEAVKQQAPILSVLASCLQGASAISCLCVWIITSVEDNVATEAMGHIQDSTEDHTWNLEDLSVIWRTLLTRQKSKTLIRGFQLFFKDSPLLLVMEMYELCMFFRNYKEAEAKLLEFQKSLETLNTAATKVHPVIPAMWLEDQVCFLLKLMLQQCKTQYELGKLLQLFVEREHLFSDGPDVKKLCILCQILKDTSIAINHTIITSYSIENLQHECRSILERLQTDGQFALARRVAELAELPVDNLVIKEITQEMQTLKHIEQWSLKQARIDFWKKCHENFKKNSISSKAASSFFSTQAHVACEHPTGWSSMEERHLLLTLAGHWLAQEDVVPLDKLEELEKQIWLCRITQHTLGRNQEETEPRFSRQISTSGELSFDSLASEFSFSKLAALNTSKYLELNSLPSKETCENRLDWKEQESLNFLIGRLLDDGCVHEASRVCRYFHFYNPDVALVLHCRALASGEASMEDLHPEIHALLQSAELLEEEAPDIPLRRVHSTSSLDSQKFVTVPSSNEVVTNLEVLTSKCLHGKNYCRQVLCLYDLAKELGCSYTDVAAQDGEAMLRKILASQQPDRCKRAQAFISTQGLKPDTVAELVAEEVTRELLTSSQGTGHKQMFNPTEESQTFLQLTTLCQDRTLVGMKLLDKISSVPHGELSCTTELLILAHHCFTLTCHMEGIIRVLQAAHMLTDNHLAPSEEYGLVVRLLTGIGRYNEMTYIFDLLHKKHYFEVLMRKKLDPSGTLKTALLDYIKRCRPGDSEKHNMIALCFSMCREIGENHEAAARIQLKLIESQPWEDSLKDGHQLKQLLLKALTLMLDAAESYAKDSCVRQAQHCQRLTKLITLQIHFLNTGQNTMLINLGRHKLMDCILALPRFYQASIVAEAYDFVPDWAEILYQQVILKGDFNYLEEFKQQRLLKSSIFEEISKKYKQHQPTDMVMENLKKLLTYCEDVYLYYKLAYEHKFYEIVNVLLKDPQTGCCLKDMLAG
UniProt Q68DK2: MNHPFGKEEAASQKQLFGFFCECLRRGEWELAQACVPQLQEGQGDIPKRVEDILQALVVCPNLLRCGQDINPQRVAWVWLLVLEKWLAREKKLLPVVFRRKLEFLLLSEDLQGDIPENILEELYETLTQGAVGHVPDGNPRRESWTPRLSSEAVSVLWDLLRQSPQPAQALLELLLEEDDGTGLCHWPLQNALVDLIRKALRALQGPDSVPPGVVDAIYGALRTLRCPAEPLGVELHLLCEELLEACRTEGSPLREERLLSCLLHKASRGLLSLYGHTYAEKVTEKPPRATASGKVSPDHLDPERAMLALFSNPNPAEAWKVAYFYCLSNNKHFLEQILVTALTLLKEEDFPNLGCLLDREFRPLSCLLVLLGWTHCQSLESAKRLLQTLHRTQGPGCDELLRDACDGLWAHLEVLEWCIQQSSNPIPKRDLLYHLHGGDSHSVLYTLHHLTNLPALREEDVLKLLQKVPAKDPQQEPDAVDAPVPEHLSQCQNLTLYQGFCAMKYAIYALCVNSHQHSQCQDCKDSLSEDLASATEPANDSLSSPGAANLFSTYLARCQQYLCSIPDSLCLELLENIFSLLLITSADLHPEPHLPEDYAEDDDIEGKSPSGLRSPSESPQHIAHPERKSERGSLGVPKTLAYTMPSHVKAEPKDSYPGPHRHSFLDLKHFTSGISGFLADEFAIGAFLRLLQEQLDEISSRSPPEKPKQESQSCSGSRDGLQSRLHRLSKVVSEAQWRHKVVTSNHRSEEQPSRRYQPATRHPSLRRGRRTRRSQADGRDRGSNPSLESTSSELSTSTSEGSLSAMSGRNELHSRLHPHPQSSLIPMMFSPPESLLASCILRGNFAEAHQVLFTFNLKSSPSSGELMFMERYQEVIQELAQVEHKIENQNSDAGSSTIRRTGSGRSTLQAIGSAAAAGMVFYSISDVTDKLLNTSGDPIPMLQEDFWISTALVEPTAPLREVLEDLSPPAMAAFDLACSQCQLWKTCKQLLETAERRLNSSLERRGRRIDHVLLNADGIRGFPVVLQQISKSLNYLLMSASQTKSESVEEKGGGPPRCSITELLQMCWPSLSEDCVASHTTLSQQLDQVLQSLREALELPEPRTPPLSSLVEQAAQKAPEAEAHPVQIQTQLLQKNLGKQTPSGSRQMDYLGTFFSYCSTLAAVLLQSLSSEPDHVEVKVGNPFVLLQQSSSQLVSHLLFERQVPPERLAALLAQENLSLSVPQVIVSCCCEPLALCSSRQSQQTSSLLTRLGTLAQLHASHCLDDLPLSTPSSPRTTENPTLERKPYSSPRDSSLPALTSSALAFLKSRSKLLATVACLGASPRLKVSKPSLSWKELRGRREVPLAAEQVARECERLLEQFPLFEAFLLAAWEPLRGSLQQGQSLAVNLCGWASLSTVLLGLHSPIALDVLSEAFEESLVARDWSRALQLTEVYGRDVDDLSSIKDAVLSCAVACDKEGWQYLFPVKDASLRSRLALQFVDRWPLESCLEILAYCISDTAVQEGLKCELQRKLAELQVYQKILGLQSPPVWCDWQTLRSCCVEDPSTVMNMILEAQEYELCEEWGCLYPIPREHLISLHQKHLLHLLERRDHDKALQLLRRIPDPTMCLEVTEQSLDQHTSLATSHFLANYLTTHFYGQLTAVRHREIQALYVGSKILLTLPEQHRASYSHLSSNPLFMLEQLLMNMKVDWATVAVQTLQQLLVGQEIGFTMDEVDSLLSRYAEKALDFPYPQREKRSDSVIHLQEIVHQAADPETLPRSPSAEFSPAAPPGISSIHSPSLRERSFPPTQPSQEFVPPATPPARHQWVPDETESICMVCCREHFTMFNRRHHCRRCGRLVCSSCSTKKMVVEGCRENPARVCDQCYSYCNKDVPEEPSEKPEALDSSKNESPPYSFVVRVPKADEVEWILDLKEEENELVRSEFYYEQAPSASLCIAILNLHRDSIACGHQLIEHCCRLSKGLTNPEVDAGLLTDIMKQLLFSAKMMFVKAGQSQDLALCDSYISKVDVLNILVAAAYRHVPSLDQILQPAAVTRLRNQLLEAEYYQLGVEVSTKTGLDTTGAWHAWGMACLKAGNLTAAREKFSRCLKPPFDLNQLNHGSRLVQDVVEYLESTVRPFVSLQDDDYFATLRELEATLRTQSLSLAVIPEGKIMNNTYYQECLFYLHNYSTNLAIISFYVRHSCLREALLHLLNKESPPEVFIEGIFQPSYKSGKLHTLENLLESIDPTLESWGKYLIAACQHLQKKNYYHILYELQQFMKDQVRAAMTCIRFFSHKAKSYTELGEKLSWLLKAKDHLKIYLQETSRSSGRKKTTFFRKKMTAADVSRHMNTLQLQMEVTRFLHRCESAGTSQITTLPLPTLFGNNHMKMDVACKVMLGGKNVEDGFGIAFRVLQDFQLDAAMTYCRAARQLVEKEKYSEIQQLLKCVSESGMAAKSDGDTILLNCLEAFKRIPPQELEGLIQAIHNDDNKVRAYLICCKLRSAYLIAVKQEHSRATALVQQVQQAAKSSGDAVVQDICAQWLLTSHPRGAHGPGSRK

From publication doi:10.1101/2024.06.14.598999 (bioRxiv, 2024) come the findings set out here.

Holding throughout (assay): cryo-EM structure
Experiment [1] has as its target human SPG11 (spatacsin), full length, N-terminal Twin-Strep-Flag tag (human) (UniProt Q96JI7).
Experiment [2] has the same target. This is another data set of the same source.
Experiment [3] shares this target. This is another data set of the same source.

For the molecule “human SPG15 (spastizin), full length, from GST-SPG15 after TEV digestion (from UniProt Q68DK2 1-2539)”, the binding result in experiment [1] is “binds”.

B1: human His6-AP5β5 trunk domain (residues 1-632) (domain or fragment, UniProt Q2VPB7 1-632)
chain: MGPLSRDAWAQRLGAFRASPSAFMAGPEGEDLGRDLLSDLRSEKLSEQTKVSLLALSMEYPAQLWPDASAAEVAATSLLDTLVLLPPRPSALRRPLLLAATTALAAGGALGPTSGASCRLLPLLLGLAAGSDLGRGFVPASEQRPLQATACECLRELESCKPGLLGGSLGLLRGLLGQEGPVQPLSLLLALALRNTLVLQSRVGAGLGGLLTDKVSPTGGGPWDWTLVEEGDGRLQPQAPSWPAAEEGEGERSLTAREHSPEEARELRAAVIQLLDTSYLLTPVAQAQLLWLLGWALRGLQGQPPALFKPQLVRLLGTAQLTLLHAMLALKAAFGEALFTAQDEALLLRRLTLAAQHPALPPPTHLFYLHCVLSFPENWPLGPEGEEAAPLLLGPQLCRGLLPSLLHDPMALLARLHLLCLLCAEEEEEEKGQLPSPRHYLEELLAGLRQRAALDGGPRALATLCFQASYLVACCLAGQPTVLTPLIHGLAQLYQARPMLAPHFVDLLDQVDSELREPLKVVLRQVVVSRPGRDEALCWHLQMLAKVADGDAQSATLNFLQAAAAHCTNWDLQQGLLRVCRALLRAGVRGGLVDLLQVLARQLEDPDGRDHARLYYILLAHLAAPKLGVALG
Take B1: the binding result in experiment [2] is “binds”.

B2: human His6-AP5β5, full length (residues 1-878) (protein, UniProt Q2VPB7 1-878)
chain: MGPLSRDAWAQRLGAFRASPSAFMAGPEGEDLGRDLLSDLRSEKLSEQTKVSLLALSMEYPAQLWPDASAAEVAATSLLDTLVLLPPRPSALRRPLLLAATTALAAGGALGPTSGASCRLLPLLLGLAAGSDLGRGFVPASEQRPLQATACECLRELESCKPGLLGGSLGLLRGLLGQEGPVQPLSLLLALALRNTLVLQSRVGAGLGGLLTDKVSPTGGGPWDWTLVEEGDGRLQPQAPSWPAAEEGEGERSLTAREHSPEEARELRAAVIQLLDTSYLLTPVAQAQLLWLLGWALRGLQGQPPALFKPQLVRLLGTAQLTLLHAMLALKAAFGEALFTAQDEALLLRRLTLAAQHPALPPPTHLFYLHCVLSFPENWPLGPEGEEAAPLLLGPQLCRGLLPSLLHDPMALLARLHLLCLLCAEEEEEEKGQLPSPRHYLEELLAGLRQRAALDGGPRALATLCFQASYLVACCLAGQPTVLTPLIHGLAQLYQARPMLAPHFVDLLDQVDSELREPLKVVLRQVVVSRPGRDEALCWHLQMLAKVADGDAQSATLNFLQAAAAHCTNWDLQQGLLRVCRALLRAGVRGGLVDLLQVLARQLEDPDGRDHARLYYILLAHLAAPKLGVALGPSLAAPALASSLVAENQGFVAALMVQEAPALVRLSLGSHRVKGPLPVLKLQPEALEPIYSLELRFRVEGQLYAPLEAVHVPCLCPGRPARPLLLPLQPRCPAPARLDVHALYTTSTGLTCHAHLPPLFVNFADLFLPFPQPPEGAGLGFFEELWDSCLPEGAESRVWCPLGPQGLEGLVSRHLEPFVVVAQPPTSYCVAIHLPPDSKLLLRLEAALADGVPVALRTDDWAVLPLAGDYLRGLAAAV
With B2, the binding entry in experiment [3] is listed as “binds”.
